At least one compound was matched to its structure with a doubt left.
Tested on: drug-resistant psychomotor seizures induced by corneal electrical stimulation
Assay: Mouse 6-Hz (44 mA) psychomotor seizure model
Assay type: in vivo, Male NMRI mice
Conditions: 300 mg/kg i.p., 30 min before stimulation; p<0.001
Method: Experiments were performed as previously described. In brief, NMRI mice (average weight 32 g, range 28-36 g) were randomly divided into control and treatment groups (n=6-11). 50 μL (injection volume was adjusted to the individual weight) of VHC (PEG200:DMSO 1:1) or treatment (an ASD or test compound dissolved in VHC) was i.p. injected in mice and after 30 minutes psychomotor seizures were induced by low frequency, long duration corneal electrical stimulation (6 Hz, 0.2 ms rectangular pulse width, 3 s duration, 44 mA) using an ECT Unit 5780 (Ugo Basile, Comerio, Italy). Mice were manually restrained and a drop of ocular anesthetic (0.5% lidocaine) was applied to the corneas before stimulation. Following electrical current stimulation, the mouse was released in a transparent cage for behavioral observation, which was video-recorded. […] In addition, facial and mouth jerking as well as head nodding were observed occasionally. Seizure durations were measured during the experiment by experienced researchers, familiar with the different seizure behaviors. In addition, seizure durations were determined by blinded video analysis to confirm or correct the initial observations. Data are expressed as mean±SD.

SMILES: CCCC(CCC)C(=O)O [valproate]
- protection against the induced seizures: fully protected
